These results are taken from PubChem BioAssay AID1508600 (Functional Genomics Laboratory (NCATS/FGL), 2020).

About 3,700 (7%) of roughly 53,000 sequences were called active.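 Rule for the calls: active = gene knockdowns whose robust z-score for IL-1 alpha signal is at least 2 or at most -2, so actives lie on both sides; inactive = the rest.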 The list shows a part of the results.

This test is described as follows: Components of the Cytosolic LPS Sensing Pathway: Gene Identification via Genome-wide siRNA Screen.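 Note: robust z of the log signal after scaling to non-targeting control siRNA wells of the plate.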 The note with it: RAW264.7 macrophages, IL-1a HTRF, actives lie on both sides, screened at 100 nM (by protocol), cells primed 5 h with Pam3CSK4 first. An outline of the steps:
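IL-1a HTRF of supernatants after 24 hour LipidA transfection of Pam3CSK4-primed (5 hours) RAW264.7 cells, 48h post-siRNA transfection (100 nM). Scores: percent of plate negative-control median, then log-based robust z-score.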
(In general: TR-FRET usually uses a lanthanide donor and a delayed reading to cut background.)
With GGAGAAGCUAUGGUAUUACTT against Apc2, the z-score was inactive: -0.798. The result for GGAAUUUUAUCCUGUAUGCTT against Tmem38b reads inactive: 0.251; that for CCUUCAGGAGAAUAAUUGUTT against Prkar2b, inactive: -0.522; that for GGAGUACGUGAUUGCUCUGTT against Rcvrn, active: -2.45. In the case of GCUCCAGGCAUUGAGAAUGTT against Hcfc1r1 it was inactive: 1.98; in that of GCAGGACUAUGUCAACCUATT against Atp6v0d2, inactive: 1.44; in that of CCUAUCCUUCUCUGACAUCTT against Olfr371, inactive: -0.25. In the case of CCGUAUUUAUAUUGGUUACTT against Phlda2 it was inactive: 0.78; in that of CCUCGAAUGCAGACGUACGTT against Sdhb, inactive: 1.67. On to CCUUGUAGCUCUGAGGAUATT against Teddm3, for which the z-score was inactive: -0.529. In the case of GGGAGGGUACAGAAAUUUATT against Spz1 it was inactive: 0.902. In the case of CCGCCAGACCUUCAUUACCTT against Chia1 it was inactive: -0.515. In the case of GCGAUUCAGAGACCUAUGGTT against Aven it was active: -2.22; in that of GGAGGAUCAGAGAACAGAGTT against Alms1, inactive: -0.345. Consider CCUGCAAUCAAAACAUCAATT against Vmn1r10, for which the z-score is inactive: 1.13.

Turning to GGAGAUGAAAAGAGAAAUCTT against Cct6b, the z-score was active: 2.41. The result for GGAGAAGUUUGGCAAGCCCTT against Hdgf reads inactive: -0.802; that for GGAAUGUUCCUUCGAGCAGTT against Ccdc28b, inactive: -0.197. In the case of GGUGGCCCUUAAACGGAAGTT against Spata16 it was inactive: 0.87; in that of GGAAGGACAGAAGAGGCCATT against Slc22a13, inactive: -1.77; in that of GGAUACCACCAUCAAUGAGTT against Atp6v1f, inactive: -0.273. The result for GGCAAAUGAGACCUCAGAATT against Cpxm1 reads inactive: -1.06; that for GGAACAUCUUCAAAGAAGATT against Minar1, inactive: -0.963. With GGCACAAUAAAAUAUAAGGTT against Srprb, the z-score is inactive: 0.317. Turning to GCCAUUUGAGUAUGUUGCATT against Ccdc120, the z-score was inactive: -0.606. With GCACCAGCCCUAUAAACUGTT against Frmd8, the z-score was inactive: 1.65. For the sequence GGCUAAAAAUCUCAUAGAGTT against Zpbp, the z-score is inactive: -0.548.

As to GCCAUGUAGCACGUAACAGTT against Haus6, the z-score was inactive: -0.368.

With CCAAUAAGUACAGCACCUUTT against C1ql4, the z-score is inactive: -0.15. The result for GGUAUUUAGGUUGAUAACATT against Kbtbd8 reads inactive: -0.206. In the case of GGCCUACAACAACCUCAUUTT against Crat it was inactive: -1.69; in that of CCUGGUACUCCAGAAUGUUTT against Sh3tc1, inactive: -1.08; in that of GGAACUGGAGAUGCACAGCTT against Mtcl1, inactive: 1.2. In the case of GCAUUUCCUUAACACUCCCTT against Msmb it was inactive: -0.614; in that of “CCCUUGGCCAAGGAACAUUTT against 4921509C19Rik”, inactive: -0.118.

On to GGCUCACCCUAACUUUCCATT against Akr1c18, for which the z-score was inactive: -0.737. For GCUCGUGUCAGAACCGAUGTT against Rwdd3, the z-score was active: 2.39. The result for CCACACGUUCCAUUUCUCGTT against Hilpda reads active: -2.65; that for GGGACAGAGCCGAAAGAGUTT against Mrpl33, inactive: -1.39.

On to GGCAAAAUAAAGCAGUGGUTT against Mrps25, for which the z-score is inactive: -0.598. The result for GGCACAAUUGAGGAGCGUATT against Ino80 reads inactive: -1.27; that for GGAAGAUCCAUUUAAUGUATT against Eps15, inactive: 1.14. GGCUGAUGGAAGAAUAUGATT against Actn2: the z-score is active: -2.2. For the sequence GCAUACGAAGGACAACCUGTT against Bspry, the z-score is inactive: 1.81. Turning to GGAUAAUGUCUCCUGCUUGTT against Plk3, the z-score was inactive: -1.37.

As to GGACAGUUCCUUCAGCACCTT against Bmf, the z-score was inactive: -0.0699. The result for GGUUUUCAAGUUUUAGUGUTT against Gsta2 reads inactive: 1.15. In the case of GGUAUUUUUUACAGGACCATT against Tmem115, the z-score is inactive: 1.13. Turning to GGCCUUUCACUUUCACUGGTT against Car6, the z-score is inactive: 0.383. The result for GGAAGGAGAGACCAUUGAGTT against Nudt1 reads inactive: -1.48.

As for “GCAUCAACUGCUGGUCUAGTT against Spata31d1a”, the z-score is inactive: -1.31. In the case of GCAGAAAAAGGAAGGCCACTT against Xlr3c it was inactive: 0.668; in that of GGCGCAGUAUCACAGUCUUTT against Tle1, inactive: 1.02. GGUCUACUUUUACGUCUCCTT against Nfatc4: the z-score was inactive: -0.339. With GGUGUUCAAGUACCAGUAUTT against Egln2, the z-score was inactive: -0.421. In the case of CCAGGAACCUAUUGAAUCUTT against Plpp7 it was inactive: 1.15; in that of GAUGCUCGAGAAUCUACUCTT against Olfr284, inactive: 1.09; in that of GGUCAAUACAAAGAAACUATT against Rabl2, inactive: 0.226. On to CGACUUCAUAAUUAUGCAATT against Als2, for which the z-score was inactive: -1.43. In the case of GGUUUUCUAUGGAAGAGAUTT against Igdcc4 it was inactive: 0.835. In the case of GGUGGUUUACCAAACGGUGTT against Ces2g, the z-score is inactive: -0.00874. In the case of GGUAUUCACCAUUAUGACUTT against Olfr186, the z-score is inactive: -1.49.

Take GCCCUUAUUAAACCAUUUGTT against Usp9x: the z-score was inactive: -0.641. The result for GGACACAGUUGAAAAGGUUTT against Kcnh1 reads inactive: -1.65; that for GGAUUUCAUGUUUGAGAUCTT against Unc13b, inactive: -1.77; that for “GGAAUUUGUCAACCGGACCTT against St6galnac6”, active: 3.31. GCGGCUACAGAUCCUAAUGTT against Khsrp: the z-score is inactive: 0.32. As to GCUUUGAUGUCGAUGGGCUTT against Arg1, the z-score was active: -2.01. The result for CCACCUGGUUUAUCAAAAUTT against Cnot4 reads inactive: -0.12; that for GGUAGAAGGUCCUGAAGAATT against Clybl, inactive: 0.732; that for GGGCUGAUUGACAAGUACUTT against Miox, inactive: 1.68. For GCCUGGAACGAACUCUUUUTT against Zbtb43, the z-score was inactive: 1.28. Turning to UACAUACAGGCUGUCUGUUTT against Olfr181, the z-score is inactive: 0.0754. The result for GGCAGUUAUGAUAAAGAUUTT against Slc25a16 reads inactive: -0.896; that for ACUGUAUACAAUUUCUUGCTT against Olfr206, inactive: 0.794; that for GGUCGAUCCAAGGAAAGAUTT against Nipsnap2, inactive: -0.572. GAACUUGAUUGUCCUCCUGTT against Mc2r: the z-score was inactive: 0.0964. The result for CCUUUGUAGUGCUAGUUAUTT against Tmem181a reads inactive: -1.55; that for UGGGAAGGUGCUCACUGAGTT against Dnph1, active: -2.53. The result for GGUAACUGGGAUUGUAUUUTT against Cbln4 reads inactive: -0.41; that for GGGAAAGAUAGUAGAAGUCTT against Gmpr2, inactive: 0.353. The result for GGAGUGAAUACUGGUGCUGTT against Crip2 reads inactive: 0.453.

Take GGUACGGUGUUUUGGAUACTT against Fam174a: the z-score was inactive: 0.00664. The result for GCCUGUUCCGCCAUUCAUGTT against Flii reads inactive: -0.2; that for GGGUCAGUCAGGAAUGUUGTT against Mad2l1, inactive: -0.233. The result for CCCUAUGACAAGAAAAAGCTT against Rpl13a reads inactive: 0.489; that for GGUGAAAAACUAUAGCAACTT against Mtx2, inactive: 0.216. Consider GCAAAUCAAACGAUCAGCUTT against Cxxc1, for which the z-score was inactive: -1.51.

Consider GCUCUUUCUUCAUUCCACATT against Krtap5-5, for which the z-score was inactive: 1.29. The result for GGUAGAGUACCCUGUCAUGTT against Mgst3 reads inactive: -0.767; that for GCCUUACGUGUCAGACUAUTT against Theg, inactive: -0.436; that for CGAUAUGCAUGCGAAUAGATT against Rtl3, inactive: -0.0384. In the case of GCAGUAUUUUGCUAUCAUATT against Ccdc63 it was inactive: 0.529; in that of GGGAUAACUCACACCACGGTT against Bscl2, inactive: -0.224. The result for AUCGAAACCCUGGAGUCGUTT against Nrp reads inactive: -1.47.

Turning to GGAUGGCUUUCAUAUCCGATT against Rpl10, the z-score is inactive: 1.12.

As to GGAUGUUAAAGCCAUAUACTT against Msh6, the z-score was inactive: -0.788. With GCAAGACACUUGAUAACUCTT against Znrd1as, the z-score is active: 2.34.

On to GGCUAAAAAAGACUUGGAATT against Pms1, for which the z-score is inactive: 0.0582. On to GCCGUAACUGCUCUGAAUGTT against Rnf34, for which the z-score is inactive: 0.28. Consider GAACUUGAUCCUCCCUGUCTT against Bglap3, for which the z-score was inactive: -0.925. Regarding CCUUAUCAAAAGCAUGCUUTT against Uhmk1, the z-score is inactive: 0.926. In the case of CGAUCAACUAUGCCAUUGGTT against Rpusd1 it was inactive: -1.91; in that of GGUGAUUUUAAUAUGCCUGTT against Cox15, inactive: -0.029; in that of GGUGACCAAGAUGCUGUUUTT against Nmur1, inactive: -0.803. Turning to GGAUAUGGUUUUUAGACACTT against Stimate, the z-score was inactive: 0.155. The result for “AUGACUAGAUACUCAGAUGTT against 4930451E10Rik” reads inactive: 1.19.
